Laboratory results as given in the supplement of paper PMC10849652.
This is one part of the list.

By UniProt entry, the sequences of proteins in these tests, tags left out. Where a name states a change or a piece, a line headed by the entry shows the natural chain unless it says otherwise.
UniProt Q9BW85: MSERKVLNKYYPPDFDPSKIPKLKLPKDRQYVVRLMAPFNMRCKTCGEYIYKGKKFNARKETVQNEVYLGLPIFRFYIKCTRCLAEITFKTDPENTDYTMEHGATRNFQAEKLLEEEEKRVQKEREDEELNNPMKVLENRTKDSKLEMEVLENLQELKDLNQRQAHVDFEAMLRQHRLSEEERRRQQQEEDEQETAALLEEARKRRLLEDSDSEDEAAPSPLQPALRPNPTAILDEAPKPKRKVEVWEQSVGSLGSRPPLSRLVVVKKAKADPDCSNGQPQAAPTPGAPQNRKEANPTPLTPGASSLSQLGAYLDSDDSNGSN
UniProt Q04917: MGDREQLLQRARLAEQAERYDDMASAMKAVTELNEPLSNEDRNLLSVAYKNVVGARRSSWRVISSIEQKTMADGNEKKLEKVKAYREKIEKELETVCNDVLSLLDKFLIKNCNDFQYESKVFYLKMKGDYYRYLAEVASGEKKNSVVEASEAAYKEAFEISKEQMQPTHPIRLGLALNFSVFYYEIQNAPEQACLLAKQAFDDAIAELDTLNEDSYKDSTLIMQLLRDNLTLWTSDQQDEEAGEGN
UniProt P25490, whole entry, looked up: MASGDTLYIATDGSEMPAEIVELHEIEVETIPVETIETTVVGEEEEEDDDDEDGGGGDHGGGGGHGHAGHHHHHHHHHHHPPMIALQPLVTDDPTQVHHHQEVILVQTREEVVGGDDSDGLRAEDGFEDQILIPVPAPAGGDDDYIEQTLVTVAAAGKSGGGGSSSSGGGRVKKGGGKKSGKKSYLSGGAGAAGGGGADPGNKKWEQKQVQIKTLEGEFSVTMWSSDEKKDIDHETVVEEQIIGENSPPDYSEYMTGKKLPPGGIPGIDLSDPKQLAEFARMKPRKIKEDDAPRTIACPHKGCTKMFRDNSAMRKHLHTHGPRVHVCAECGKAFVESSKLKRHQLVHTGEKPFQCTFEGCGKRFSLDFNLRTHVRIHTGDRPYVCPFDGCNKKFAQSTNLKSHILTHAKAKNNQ
UniProt Q969M3: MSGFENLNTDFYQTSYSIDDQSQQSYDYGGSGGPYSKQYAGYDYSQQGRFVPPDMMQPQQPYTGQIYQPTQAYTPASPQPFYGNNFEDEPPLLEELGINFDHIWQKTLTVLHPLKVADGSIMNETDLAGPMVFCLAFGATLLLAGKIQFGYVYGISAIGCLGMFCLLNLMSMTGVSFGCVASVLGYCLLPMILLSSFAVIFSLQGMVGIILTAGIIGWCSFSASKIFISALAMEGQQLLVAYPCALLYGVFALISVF
UniProt P62699: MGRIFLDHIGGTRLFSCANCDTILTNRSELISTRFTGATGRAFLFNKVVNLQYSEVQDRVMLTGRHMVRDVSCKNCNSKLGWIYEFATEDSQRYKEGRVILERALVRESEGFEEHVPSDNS
UniProt Q96KR1: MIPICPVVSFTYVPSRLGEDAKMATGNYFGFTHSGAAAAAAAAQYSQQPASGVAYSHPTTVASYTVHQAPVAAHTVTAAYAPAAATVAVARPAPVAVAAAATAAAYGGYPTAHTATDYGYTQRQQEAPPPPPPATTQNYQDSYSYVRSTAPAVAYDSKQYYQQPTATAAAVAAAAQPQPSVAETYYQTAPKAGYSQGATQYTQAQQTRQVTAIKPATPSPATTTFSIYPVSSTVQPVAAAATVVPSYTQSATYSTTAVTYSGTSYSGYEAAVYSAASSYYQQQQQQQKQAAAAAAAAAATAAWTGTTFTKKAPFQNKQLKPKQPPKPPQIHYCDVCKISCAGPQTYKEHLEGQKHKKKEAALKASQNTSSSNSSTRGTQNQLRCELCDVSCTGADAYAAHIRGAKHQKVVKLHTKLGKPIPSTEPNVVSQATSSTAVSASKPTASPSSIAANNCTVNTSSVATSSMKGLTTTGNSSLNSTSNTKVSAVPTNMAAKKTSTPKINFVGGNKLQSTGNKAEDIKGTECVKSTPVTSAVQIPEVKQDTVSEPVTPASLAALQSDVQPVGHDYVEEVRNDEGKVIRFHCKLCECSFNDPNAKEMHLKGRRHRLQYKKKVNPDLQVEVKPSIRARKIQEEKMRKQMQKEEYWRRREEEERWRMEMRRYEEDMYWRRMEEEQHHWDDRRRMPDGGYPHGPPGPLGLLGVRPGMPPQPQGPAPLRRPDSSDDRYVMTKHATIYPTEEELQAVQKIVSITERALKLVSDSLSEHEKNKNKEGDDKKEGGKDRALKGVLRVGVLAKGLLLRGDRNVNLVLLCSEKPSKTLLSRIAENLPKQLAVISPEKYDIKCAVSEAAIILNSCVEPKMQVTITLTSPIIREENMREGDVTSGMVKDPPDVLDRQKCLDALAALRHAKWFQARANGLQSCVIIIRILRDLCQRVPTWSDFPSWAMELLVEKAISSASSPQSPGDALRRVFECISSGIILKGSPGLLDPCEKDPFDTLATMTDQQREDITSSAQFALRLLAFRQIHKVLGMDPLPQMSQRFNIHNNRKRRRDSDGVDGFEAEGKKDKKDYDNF
UniProt P98170, whole entry, looked up: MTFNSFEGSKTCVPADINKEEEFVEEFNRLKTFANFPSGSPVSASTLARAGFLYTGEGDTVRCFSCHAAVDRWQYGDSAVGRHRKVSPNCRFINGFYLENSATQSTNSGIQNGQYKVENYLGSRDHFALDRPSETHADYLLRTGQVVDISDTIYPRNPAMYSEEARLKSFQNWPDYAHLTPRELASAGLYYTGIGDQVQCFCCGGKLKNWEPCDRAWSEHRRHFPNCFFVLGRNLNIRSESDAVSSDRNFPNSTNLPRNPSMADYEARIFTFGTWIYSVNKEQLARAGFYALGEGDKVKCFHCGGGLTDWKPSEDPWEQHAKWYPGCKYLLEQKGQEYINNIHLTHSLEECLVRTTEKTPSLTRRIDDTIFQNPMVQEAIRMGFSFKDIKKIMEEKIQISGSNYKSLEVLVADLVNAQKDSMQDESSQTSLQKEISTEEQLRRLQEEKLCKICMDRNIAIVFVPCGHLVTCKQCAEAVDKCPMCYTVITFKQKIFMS
UniProt Q7Z2W4: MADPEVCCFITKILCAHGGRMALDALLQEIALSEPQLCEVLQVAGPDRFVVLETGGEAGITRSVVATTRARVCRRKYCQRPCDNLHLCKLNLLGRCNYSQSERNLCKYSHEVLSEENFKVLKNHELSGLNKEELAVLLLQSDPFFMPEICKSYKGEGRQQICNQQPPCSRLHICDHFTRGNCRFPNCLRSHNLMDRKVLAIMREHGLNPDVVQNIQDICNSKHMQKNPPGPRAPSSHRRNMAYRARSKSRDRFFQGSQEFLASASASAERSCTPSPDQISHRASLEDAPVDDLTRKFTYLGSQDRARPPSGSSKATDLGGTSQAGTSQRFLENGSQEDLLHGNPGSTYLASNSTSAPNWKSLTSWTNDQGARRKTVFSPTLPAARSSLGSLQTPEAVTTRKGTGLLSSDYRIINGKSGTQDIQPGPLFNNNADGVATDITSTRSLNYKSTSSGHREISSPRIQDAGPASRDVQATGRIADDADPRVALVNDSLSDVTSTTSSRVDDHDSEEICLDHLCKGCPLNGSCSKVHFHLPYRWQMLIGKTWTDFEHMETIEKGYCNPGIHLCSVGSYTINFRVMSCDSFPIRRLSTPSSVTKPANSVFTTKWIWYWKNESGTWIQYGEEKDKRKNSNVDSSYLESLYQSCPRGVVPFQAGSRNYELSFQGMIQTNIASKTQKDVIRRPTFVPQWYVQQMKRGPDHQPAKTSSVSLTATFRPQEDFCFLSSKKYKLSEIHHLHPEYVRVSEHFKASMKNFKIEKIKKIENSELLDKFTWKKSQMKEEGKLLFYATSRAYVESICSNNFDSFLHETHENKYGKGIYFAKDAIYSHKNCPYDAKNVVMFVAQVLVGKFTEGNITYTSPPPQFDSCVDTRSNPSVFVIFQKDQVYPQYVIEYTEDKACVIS
UniProt Q9ULJ6: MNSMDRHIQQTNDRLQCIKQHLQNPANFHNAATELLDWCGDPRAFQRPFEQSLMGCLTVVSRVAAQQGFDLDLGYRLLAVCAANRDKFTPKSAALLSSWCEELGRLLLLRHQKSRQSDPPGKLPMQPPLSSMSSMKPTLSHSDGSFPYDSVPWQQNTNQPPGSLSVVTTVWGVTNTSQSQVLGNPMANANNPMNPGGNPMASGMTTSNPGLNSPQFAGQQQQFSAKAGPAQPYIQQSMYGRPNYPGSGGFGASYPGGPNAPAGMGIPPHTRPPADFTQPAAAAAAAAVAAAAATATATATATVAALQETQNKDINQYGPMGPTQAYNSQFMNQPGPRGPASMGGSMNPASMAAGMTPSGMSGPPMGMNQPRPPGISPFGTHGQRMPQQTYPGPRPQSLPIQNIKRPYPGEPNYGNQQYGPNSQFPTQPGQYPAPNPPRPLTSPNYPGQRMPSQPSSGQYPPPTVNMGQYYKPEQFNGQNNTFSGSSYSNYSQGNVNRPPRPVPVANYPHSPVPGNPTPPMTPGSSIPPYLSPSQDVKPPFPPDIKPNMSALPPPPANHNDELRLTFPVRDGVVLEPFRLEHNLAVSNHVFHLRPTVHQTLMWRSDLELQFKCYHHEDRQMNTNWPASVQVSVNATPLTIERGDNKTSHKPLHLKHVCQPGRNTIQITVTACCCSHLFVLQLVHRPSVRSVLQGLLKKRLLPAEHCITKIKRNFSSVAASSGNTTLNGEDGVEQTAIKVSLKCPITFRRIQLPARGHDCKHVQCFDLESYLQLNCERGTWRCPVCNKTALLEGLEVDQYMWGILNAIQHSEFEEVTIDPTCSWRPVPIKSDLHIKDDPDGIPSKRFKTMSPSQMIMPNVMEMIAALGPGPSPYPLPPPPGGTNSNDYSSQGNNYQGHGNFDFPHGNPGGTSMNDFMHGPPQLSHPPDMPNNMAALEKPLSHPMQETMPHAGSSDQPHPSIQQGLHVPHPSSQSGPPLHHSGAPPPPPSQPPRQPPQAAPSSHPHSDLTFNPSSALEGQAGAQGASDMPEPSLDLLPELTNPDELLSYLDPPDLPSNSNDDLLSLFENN

Legend:
Assay in all cases: log2 fold change, soluble protein after heating vs DMSO (PISA); higher = thermal stabilisation; K562 cells, 10 uM, 30 min; active = over 0.2 and 3.5 SD of the protein, either way, in both replicates (recomputed)
[1] = compound: C1=CC=C(C=C1)[C@H](COC2=CC3=C(C=C2)NC(=O)N3)NC(=O)C4=CC=CN(C4=O)CC5=CC(=C(C=C5)F)F
Method in brief: (§1)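 Soluble protein was quantified by TMTpro 16plex LC-MS/MS after channel sums were equalised. It was obtained as the supernatant after 21,000xg for 90 min from pooled aliquots of K562 cells (2×10^6 cells/mL, 10 μM compound, 30 min) heated for 3 min across 48°C-58°C and extracted in PBS with 0.5% NP-40 at 4°C. Thermal stability values are relative to control samples and come from duplicates. They are given as log2 fold changes.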

[2] = compound: CC1=C(SC2=C1C(=N[C@H](C3=NN=C(N32)C)CC(=O)N)C4=CC=C(C=C4)Cl)C
Method in brief: as §1

[3] = compound: CC1=C2C(=CC=C1)N=C(N(C2=O)C3=CC=CC=C3C)CN4C=NC5=C(N=CN=C54)N
Method in brief: as §1

[4] = compound: Cc1sc2c(c1C)C(c1ccc(Cl)cc1)=N[C@@H](CC(=O)OC(C)(C)C)c1nnc(C)n1-2
Method in brief: as §1

[5] = compound: c1ccc([C@@H]2C[C@H]2NC2CCNCC2)cc1
Method in brief: as §1

Measured: log2 fold change

YJU2 (UniProt Q9BW85)
inactive: [1] -0.041 | [2] 0 | [3] 0.058 | [4] -0.02 | [5] 0.047

YWHAH (UniProt Q04917)
inactive: [1] -0.015 | [2] -0.015 | [3] -0.049 | [4] -0.046 | [5] 0.016

YY1 (UniProt P25490)
inactive: [1] 0.013 | [2] -0.006 | [3] -0.033 | [4] -0.015 | [5] 0.084

YIPF5 isoform 3 (UniProt Q969M3)
inactive: [1] 0 | [2] 0.025 | [3] 0.018 | [4] 0.002 | [5] 0.08

YPEL5 (UniProt P62699)
inactive: [1] -0.066 | [2] 0.044 | [3] 0.016 | [5] -0.081

ZFR (UniProt Q96KR1)
inactive: [1] 0.009 | [2] -0.007 | [3] -0.205 | [4] 0.151 | [5] 0.18

XIAP (UniProt P98170)
inactive: [1] 0.05 | [2] 0.003 | [3] 0 | [4] 0.048 | [5] 0.002

ZC3HAV1 (UniProt Q7Z2W4)
inactive: [1] 0.027 | [2] -0.209 | [3] -0.29 | [4] 0.195 | [5] 0.043

2 records picked at random from those above:
ZC3HAV1 (UniProt Q7Z2W4)
inactive: [1] 0.027 | [2] -0.209 | [3] -0.29 | [4] 0.195 | [5] 0.043

YPEL5 (UniProt P62699)
inactive: [1] -0.066 | [2] 0.044 | [3] 0.016 | [5] -0.081

Continuation.

ZMIZ1 (UniProt Q9ULJ6)
inactive: [1] -0.023 | [2] 0.083 | [3] 0.044 | [4] 0.031 | [5] 0.041
